Results: US4474761A (Choay S.A., priority 1980, dated 1984)
Some peptides are written in HELM: one residue between dots, names in brackets for other building blocks, links after the first $. [ ]: non-standard residue; d: D form. The star is where a group is joined. Hyp = O=C(O)[C@@H]1C[C@@H](O)CN1; Cbz = O=C(OCc1ccccc1)*; Boc = CC(C)(C)OC(=O)*; OtBu = CC(C)(C)O*

Experiment: general procedure: solution-phase peptide synthesis; isobutyl chlorocarbonate / N-methylmorpholin (mixed anhydride)

## Cbz-E(OtBu)[Hyp]GPK(Boc)-OtBu
Coupling step
  step yield: 54%

## Cbz-GK(Cbz)[Hyp]G-OH
Late stage modification step
  step yield: 87.3%

## Cbz-GK(Cbz)[Hyp]G-OtBu
Coupling step
  step yield: 103%

## Glu--(OBu^t)--Hyp--Gly--Pro--Lys--(BOC)--OBu^t, acetate
Late stage modification step
  step yield: 100%

## PEPTIDE1{G.K.[Hyp].G.E.[Hyp].G.P.K}$$$$V2.0
Late stage modification step, trifluoroacetic salt
  step yield: 91%
